This is an account of results in PMC4464074.

For at least one entry, the source does not settle the construct or the ends of the probe.

Data set [1] addresses RecQ523 (Escherichia coli) (UniProt P15043). Kind of data set: stopped-flow binding kinetics from ATPase lag (koff/kon). Particulars: ATP (during ATPase cycling); SF50: 50 mM Tris-HCl pH 7.5, 50 mM NaCl, 1 mM DTT, 5 mM MgCl2, 50 µg/mL BSA, 25 °C; anisotropy with 10 nM forked duplex; recombinant protein; residues 1-523; single-stranded DNA.
The target of data set [2] is RecQWT (Escherichia coli) (UniProt P15043). The data set is described as above. The note with it: ATP (during ATPase cycling); SF50: 50 mM Tris-HCl pH 7.5, 50 mM NaCl, 1 mM DTT, 5 mM MgCl2, 50 µg/mL BSA, 25 °C; anisotropy with 10 nM forked duplex; recombinant protein; single-stranded DNA.
The target of data set [3] is RecQY555A (Escherichia coli) (UniProt P15043). The description is as above. Particulars: ATP (during ATPase cycling); SF50: 50 mM Tris-HCl pH 7.5, 50 mM NaCl, 1 mM DTT, 5 mM MgCl2, 50 µg/mL BSA, 25 °C; anisotropy with 10 nM forked duplex; recombinant protein; single-stranded DNA.
Data set [4] addresses RecQ523 (Escherichia coli) (UniProt P15043). Description: DNA dependence of steady-state ATPase (Pi release, MDCC-PBP stopped-flow), Kd,app. The note with it: ATP (during ATPase cycling); SF50: 50 mM Tris-HCl pH 7.5, 50 mM NaCl, 1 mM DTT, 5 mM MgCl2, 50 µg/mL BSA, 25 °C; anisotropy with 10 nM forked duplex; recombinant protein; residues 1-523; single-stranded DNA.
In data set [5] the target is RecQWT (Escherichia coli) (UniProt P15043). The data set is described as above. The note with it: ATP (during ATPase cycling); SF50: 50 mM Tris-HCl pH 7.5, 50 mM NaCl, 1 mM DTT, 5 mM MgCl2, 50 µg/mL BSA, 25 °C; anisotropy with 10 nM forked duplex; recombinant protein; single-stranded DNA.
In data set [6] the target is RecQY555A (Escherichia coli) (UniProt P15043). The data set is described as above. The note with it: ATP (during ATPase cycling); SF50: 50 mM Tris-HCl pH 7.5, 50 mM NaCl, 1 mM DTT, 5 mM MgCl2, 50 µg/mL BSA, 25 °C; anisotropy with 10 nM forked duplex; recombinant protein; single-stranded DNA.

One may read the Kd as the concentration at which binding is half-saturated.

For “TTTTTTTTTTTTTTTTTTTTTTTTTTTTTTTTTTTTTTTTTTTTTTTTTTTTTT [dT54]”, the Kd is 5.4 µM (nt) in data set [1], 4.6 µM (nt) in data set [2] and 5.7 µM (nt) in data set [3]. The half-maximal binding in data set [4] was 2.2 µM (nt); in data set [5], 1.2 µM (nt); in data set [6], 3.1 µM (nt).
